From publication PMC12576426
Construct, isoform or probe ends are uncertain for at least one entry. Where a protein sequence is shown, tags need not be part of it.

Columns and labels:
[1] = target: T1, CaDRHB12 (Capsicum annuum) (UniProt A0A2G2ZAK7); test: competition with a labelled probe; settings: unlabeled competitor against biotin-labelled N1; LightShift Chemiluminescent EMSA Kit (Thermo Fisher); pH and temperature not stated; recombinant protein; protein details: MBP
T1 sequence (looked up, limits assumed): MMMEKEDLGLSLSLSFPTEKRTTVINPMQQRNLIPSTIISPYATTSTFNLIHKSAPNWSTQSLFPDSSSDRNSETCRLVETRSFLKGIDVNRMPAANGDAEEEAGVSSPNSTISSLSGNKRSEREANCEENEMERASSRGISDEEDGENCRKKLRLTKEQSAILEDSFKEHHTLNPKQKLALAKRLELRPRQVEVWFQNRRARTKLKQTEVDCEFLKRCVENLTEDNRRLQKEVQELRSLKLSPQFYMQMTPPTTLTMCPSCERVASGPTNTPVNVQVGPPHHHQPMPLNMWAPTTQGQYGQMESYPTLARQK

[2] = target: T1, CaDRHB12 (Capsicum annuum); test: EMSA; settings: LightShift Chemiluminescent EMSA Kit (Thermo Fisher); pH and temperature not stated; recombinant protein; protein details: MBP

Sequence | binding result [1] | binding result [2]
TAAATATAATAATTGATAGTG (double strand) [ATHB6COREAT cold probe (CaRAB18 promoter)] | binds | 
TATTTAAATATAATAATTGATAGTGCCAA (double strand) [ATHB6COREAT hot probe (CaRAB18 promoter)] |  | binds
